# Results published in article PMC5996148.
# Where “and” joins values, the source holds several entries; their conditions need not be identical. Identical values can stand only once. The list shows a part of the results. For some assays here: The source does not settle which construct or isoform was used.
# Legend:
# Experiment in all cases: protein microarray (ProtoArray v5.0), streptavidin-Alexa Fluor 647
# Settings in all cases: 3'-biotin; 20 mM Tris (pH 7.5), 5 mM MgCl2, 100 mM KCl, 0.1% Tween-20, A/T-rich and random oligonucleotide blockers; temperature not stated; high values mean tight binding
# [1] = test system: PSMB4 (human)
# [2] = test system: PSMB8 (human)
# [3] = test system: PSMD10 (human)
# [4] = test system: PSMD11 (human)
# [5] = test system: PSMD5 (human)
# [6] = test system: PSME1 (human)
# [7] = test system: PSPH (human)
# [8] = biological target: T1, PSRC1 (UniProt Q6PGN9)
# T1 sequence: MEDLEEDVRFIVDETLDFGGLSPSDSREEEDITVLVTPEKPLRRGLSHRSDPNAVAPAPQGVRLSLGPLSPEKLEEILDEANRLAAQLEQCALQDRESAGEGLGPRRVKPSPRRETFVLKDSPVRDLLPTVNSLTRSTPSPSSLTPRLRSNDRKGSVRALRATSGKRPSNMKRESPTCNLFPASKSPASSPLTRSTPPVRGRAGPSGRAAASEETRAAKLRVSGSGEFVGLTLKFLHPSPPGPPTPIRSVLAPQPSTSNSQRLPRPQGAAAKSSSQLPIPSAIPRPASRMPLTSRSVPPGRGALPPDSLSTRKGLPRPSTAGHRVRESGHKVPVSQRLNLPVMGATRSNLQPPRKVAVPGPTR
# [9] = test system: PTCHD1 (human)
# [10] = test system: PTGES2 (human)
# [11] = test system: PTMS (human)
# [12] = test system: PTPN1 (human)
# [13] = test system: PTPN2 (human)
# [14] = test system: PTPN5 (human)
# [15] = test system: PVALB (human)
# [16] = test system: PXN (human)
# [17] = test system: PYCR1 (human)
# [18] = test system: Paladin (human)
# [19] = test system: Pantothenate kinase 1 (human)
# [20] = test system: Parvalbumin alpha (human)
sequence,measurement,setting,value
GGTGACAGGGGTATGGGGAGGGG [G4-2 biotinylated (Ct1)],binding signal,[1],-0.374 z-score
same,binding signal,[2],-0.357 z-score
same,binding signal,[3],-0.379 z-score
same,binding signal,[4],-0.394 z-score
same,binding signal,[5],-0.397 z-score
same,binding signal,[6],-0.393 z-score
same,binding signal,[7],-0.362 z-score
same,binding signal,[8],4.05 z-score
same,binding signal,[9],-0.38 z-score
same,binding signal,[10],-0.399 z-score
same,binding signal,[11],-0.371 z-score
same,binding signal,[12],-0.39 z-score
same,binding signal,[13],-0.382 z-score
same,binding signal,[14],-0.379 z-score
same,binding signal,[15],-0.386 z-score
same,binding signal,[16],-0.379 z-score
same,binding signal,[17],-0.385 z-score
same,binding signal,[18],-0.365 z-score
same,binding signal,[19],-0.366 z-score and -0.392 z-score
same,binding signal,[20],-0.391 z-score
